Results reported in the supplement of paper PMC10689618.
Structures can show the parent of a compound that is named as a salt. This is one part of the list. Repeats are few or missing, and single values can be far off.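 Primary human fetal astrocytes engulfed labelled rat cortical synaptosomes, measured as a red/green ratio corrected for calcein live-cell signal and scaled to the plate median. Toxicity meant calcein falling over 30%; decreased phagocytosis meant below 70% of median above 5 µM.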

Key:
Details in all cases: 24 h
Human fetal astrocytes [1] = assay: loss of total cells relative to no-compound high-control median (toxicity); higher = more toxic (fewer cells)
Human fetal astrocytes [2] = assay: as above; remark: listed apart in the source
Human fetal astrocytes [3] = assay: synaptosome phagocytosis (pHrodo/calcein intensity ratio) relative to plate median of data wells; higher = more phagocytosis

## COc1cccc2c1C(=O)c1c(O)c3c(c(O)c1C2=O)C[C@@](O)(C(C)=O)C[C@@H]3O[C@H]1C[C@H](N)[C@H](O)[C@H](C)O1
Human fetal astrocytes [1]; 1.39 µM
  loss of total cells: 11.6%
Human fetal astrocytes [1]; 2.78 µM
  loss of total cells: 15.3%
Human fetal astrocytes [1]; 5.56 µM
  loss of total cells: 18.8%
Human fetal astrocytes [1]; 11.11 µM
  loss of total cells: 28.5%
Human fetal astrocytes [1]; 22.22 µM
  loss of total cells: 33.7%

## O=c1ccc2ccc(O)c(O)c2o1 [Daphnetin]
Human fetal astrocytes [2]; 1.39 µM
  loss of total cells: -0.4%
Human fetal astrocytes [2]; 2.78 µM
  loss of total cells: -5.1%
Human fetal astrocytes [2]; 5.56 µM
  loss of total cells: 6.6%
Human fetal astrocytes [2]; 11.11 µM
  loss of total cells: 15.7%
Human fetal astrocytes [3]; 1.39 µM
  synaptosome phagocytosis: 91.8%
Human fetal astrocytes [3]; 2.78 µM
  synaptosome phagocytosis: 90.1%
Human fetal astrocytes [3]; 5.56 µM
  synaptosome phagocytosis: 112%
Human fetal astrocytes [3]; 11.11 µM
  synaptosome phagocytosis: 95.4%

## C=CCN1CCc2c(cc(O)c(O)c2Cl)C(c2ccccc2)C1 (racemic) [(±)-Chloro-APB hydrobromide]
Human fetal astrocytes [2]; 22.22 µM
  loss of total cells: 15.2%
Human fetal astrocytes [3]; 22.22 µM
  synaptosome phagocytosis: 67.8%

## CC(N)=NCCC[C@H](N)C(=O)O [L-N5-(1-Iminoethyl)ornithine hydrochloride]
Human fetal astrocytes [2]; 1.39 µM
  loss of total cells: -11.8%
Human fetal astrocytes [2]; 2.78 µM
  loss of total cells: 1.4%
Human fetal astrocytes [2]; 5.56 µM
  loss of total cells: 8%
Human fetal astrocytes [2]; 11.11 µM
  loss of total cells: -2.9%
Human fetal astrocytes [2]; 22.22 µM
  loss of total cells: 6.5%
Human fetal astrocytes [3]; 1.39 µM
  synaptosome phagocytosis: 94.1%
Human fetal astrocytes [3]; 2.78 µM
  synaptosome phagocytosis: 120%
Human fetal astrocytes [3]; 5.56 µM
  synaptosome phagocytosis: 122%
Human fetal astrocytes [3]; 11.11 µM
  synaptosome phagocytosis: 145%
Human fetal astrocytes [3]; 22.22 µM
  synaptosome phagocytosis: 130%

## Cn1c(=O)c2[nH]c(C3CCCC3)nc2n(C)c1=O [8-Cyclopentyl-1,3-dimethylxanthine]
Human fetal astrocytes [2]; 22.22 µM
  loss of total cells: -0.8%
Human fetal astrocytes [3]; 22.22 µM
  synaptosome phagocytosis: 123%

## CC(=Cc1ccc(C(=O)O)cc1)c1ccc2c(c1)C(C)(C)CCC2(C)C
Human fetal astrocytes [2]; 1.39 µM
  loss of total cells: -19.6%
Human fetal astrocytes [2]; 2.78 µM
  loss of total cells: -26.6%
Human fetal astrocytes [2]; 5.56 µM
  loss of total cells: -13.5%
Human fetal astrocytes [2]; 11.11 µM
  loss of total cells: -18.8%
Human fetal astrocytes [2]; 22.22 µM
  loss of total cells: -45.3%
Human fetal astrocytes [3]; 1.39 µM
  synaptosome phagocytosis: 130%
Human fetal astrocytes [3]; 2.78 µM
  synaptosome phagocytosis: 114%
Human fetal astrocytes [3]; 5.56 µM
  synaptosome phagocytosis: 109%
Human fetal astrocytes [3]; 11.11 µM
  synaptosome phagocytosis: 114%
Human fetal astrocytes [3]; 22.22 µM
  synaptosome phagocytosis: 125%

## O=C(NCCNCC(O)COc1ccc(O)cc1)N1CCOCC1 (stereo not given) [Xamoterol hemifumarate]
Human fetal astrocytes [2]; 1.39 µM
  loss of total cells: -17.1%
Human fetal astrocytes [2]; 2.78 µM
  loss of total cells: -32.6%
Human fetal astrocytes [2]; 5.56 µM
  loss of total cells: -10.1%
Human fetal astrocytes [2]; 11.11 µM
  loss of total cells: -24.9%
Human fetal astrocytes [2]; 22.22 µM
  loss of total cells: -38.7%
Human fetal astrocytes [3]; 1.39 µM
  synaptosome phagocytosis: 133%
Human fetal astrocytes [3]; 2.78 µM
  synaptosome phagocytosis: 87.8%
Human fetal astrocytes [3]; 5.56 µM
  synaptosome phagocytosis: 94.6%
Human fetal astrocytes [3]; 11.11 µM
  synaptosome phagocytosis: 140%
Human fetal astrocytes [3]; 22.22 µM
  synaptosome phagocytosis: 122%

## CC[n+]1c(-c2ccccc2)c2cc(N)ccc2c2ccc(N)cc21
Human fetal astrocytes [1]; 1.39 µM
  loss of total cells: 28.5%
Human fetal astrocytes [1]; 2.78 µM
  loss of total cells: 22%
Human fetal astrocytes [1]; 5.56 µM
  loss of total cells: 34.1%
Human fetal astrocytes [1]; 11.11 µM
  loss of total cells: 33.9%
Human fetal astrocytes [1]; 22.22 µM
  loss of total cells: 19.7%

## O=C(O)CN(CC(=O)O)Cc1cc2c(cc1O)Oc1cc(O)c(CN(CC(=O)O)CC(=O)O)cc1C21OC(=O)c2ccccc21
Human fetal astrocytes [1]; 1.39 µM
  loss of total cells: 17%
Human fetal astrocytes [1]; 2.78 µM
  loss of total cells: 5.4%
Human fetal astrocytes [1]; 5.56 µM
  loss of total cells: 25.4%
Human fetal astrocytes [1]; 11.11 µM
  loss of total cells: -69%
Human fetal astrocytes [1]; 22.22 µM
  loss of total cells: 33.3%

## O=C1N=C(O)NC1(c1ccccc1)c1ccccc1 [Phenytoin sodium]
Human fetal astrocytes [2]; 1.39 µM
  loss of total cells: -1.3%
Human fetal astrocytes [2]; 2.78 µM
  loss of total cells: 0%
Human fetal astrocytes [2]; 5.56 µM
  loss of total cells: 1.6%
Human fetal astrocytes [2]; 11.11 µM
  loss of total cells: 1.3%
Human fetal astrocytes [3]; 1.39 µM
  synaptosome phagocytosis: 116%
Human fetal astrocytes [3]; 2.78 µM
  synaptosome phagocytosis: 108%
Human fetal astrocytes [3]; 5.56 µM
  synaptosome phagocytosis: 104%
Human fetal astrocytes [3]; 11.11 µM
  synaptosome phagocytosis: 110%

## NC1CONC1=O (racemic) [DL-Cycloserine]
Human fetal astrocytes [2]; 1.39 µM
  loss of total cells: -25.7%
Human fetal astrocytes [2]; 2.78 µM
  loss of total cells: -22.3%
Human fetal astrocytes [2]; 5.56 µM
  loss of total cells: -22.6%
Human fetal astrocytes [2]; 11.11 µM
  loss of total cells: -10.3%
Human fetal astrocytes [2]; 22.22 µM
  loss of total cells: 1.9%
Human fetal astrocytes [3]; 1.39 µM
  synaptosome phagocytosis: 87.6%
Human fetal astrocytes [3]; 2.78 µM
  synaptosome phagocytosis: 72.5%
Human fetal astrocytes [3]; 5.56 µM
  synaptosome phagocytosis: 110%
Human fetal astrocytes [3]; 11.11 µM
  synaptosome phagocytosis: 108%
Human fetal astrocytes [3]; 22.22 µM
  synaptosome phagocytosis: 101%
